# Test results as given in PubChem BioAssay AID493014 (National Center for Advancing Translational Sciences (NCATS), 2011).
# Several values for one entry are separate records, joined by “and”; a condition that tells them apart may be missing. Equal values may be shown once. The list shows a part of the results. These are further read-outs of the screen, such as a control signal, another cell line or another target. No call is given for them. Compounds called inactive in the main read-out are mostly missing here. The note in brackets gives the kind of curve behind each potency; many fits are weak.
# Assay: qHTS Assay to Find Inhibitors of Chronic Active B-Cell Receptor Signaling
# Conditions: ABC-DLBCL IkBa-CBG/CBR reporter, luminescence ratio (green luciferase fused to IkBa over red control in TMD8 lymphoma cells), 4 h
# Procedure, shortened: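 TMD8 human ABC-DLBCL cells with doxycycline-inducible IκBα–green luciferase fusion and unfused red luciferase, in 0.5% FBS medium; compounds up to 46 uM, 4 h at 37C. Green/red luminescence ratio, filter-overlap corrected, fitted to concentration-response curves.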
# [1] = measured here: CBR red luminescence, cell number
# [2] = measured here: IkBa-CBG green luminescence
SMILES,AC50 [1],AC50 [2]
Nc1nc2ccc(OC(F)(F)F)cc2s1,"35.5 µM [rising, single point] and 20.6 µM [rising, partial curve]",
N#Cc1cccc(NC(=O)CSc2ccc3c4c(cccc24)C(=O)c2ccccc2-3)c1,"2.06 µM [falling, full curve, poor fit]",
Cc1cc(OCC(=O)c2ccc(F)cc2)ccc1N1C(=O)CCC1=O,"3.26 µM [rising, partial curve, poor fit]",
Cc1cccc(CCNC(=O)c2cc(S(=O)(=O)N3CCCC3)cn2C)c1,,"35.5 µM [rising, partial curve, poor fit]"
O=C(N/N=C/c1ccc[nH]1)c1cccc([N+](=O)[O-])c1,"16.4 µM [falling, single point]",
Cc1ccc(-c2c3c(=O)n(C)c(=O)n(C)c3cn2-c2ccccc2O)cc1,"15.8 µM [falling, partial curve, poor fit]",
COc1ccc2cnnc(SCC(=O)Nc3ccc(C(=O)O)cc3)c2c1OC,"29.1 µM [falling, single point]",
Cc1nc(-c2ccccc2)sc1-c1ccnn1C,"0.447 µM [rising, full curve]",
CCn1c(SCC(=O)NCCc2ccc(Cl)cc2)nnc1-c1cccs1,"29.1 µM [falling, single point]",
COC(=O)[C@H](Cc1ccccc1)NC(=O)c1ccc2ccccc2n1,"5.62 µM [rising, full curve, poor fit]",
O=[N+]([O-])c1ccc(N/N=C/c2ccccc2O)cc1,"35.5 µM [falling, single point]",
Cc1cc(=O)oc2c1ccc1oc(/C(=N/O)c3ccccc3)c(C)c12,"6.51 µM [falling, partial curve]",
COc1cc(C(=O)NCC(=O)N2CCN(S(=O)(=O)c3ccccc3C(F)(F)F)CC2)cc(OC)c1OC,"0.651 µM [rising, partial curve, poor fit]",
O=C(NNC1=C(C(=O)C(F)(F)F)CCC1)c1ccccc1O,"7.31 µM [falling, partial curve]",
COc1ccc(CNC(=O)C(c2ccc(C)o2)N(C(=O)c2snc(C(N)=O)c2N)c2ccccc2OC)cc1 (stereo unspecified),"3.16 µM [rising, single point]",
Cc1ccccc1C(=O)N1CC(=O)Nc2ccc(F)cc2C1c1ccc(F)cc1 (stereo unspecified),"7.94 µM [falling, partial curve]",
COc1ccc(C(CNC(=O)Nc2ccc(Cl)cc2)N2CCN(C)CC2)cc1 (stereo unspecified),"6.31 µM [rising, single point]",
CCn1c(SCC(=O)O)nnc1-c1ccccc1OC,"8.91 µM [falling, partial curve, poor fit]",
CCc1ccc(OCC(=O)Nc2ccncc2)c(Br)c1,"2.24 µM [rising, partial curve, poor fit]",
Oc1ccccc1-c1cc(-c2cccc(F)c2)n[nH]1,"8.91 µM [falling, partial curve]",
O=C(Nc1nc2ccccc2n1CCN1CCCC1)c1ccc(Cl)cc1,"35.5 µM [falling, single point]",
O=C(NNC(=S)NC(=O)c1cccnc1)c1ccc(Cl)cc1,"12.6 µM [falling, single point]",

# As a short view, some entries already given.
SMILES,AC50 [1],AC50 [2]
Cc1ccc(-c2c3c(=O)n(C)c(=O)n(C)c3cn2-c2ccccc2O)cc1,"15.8 µM [falling, partial curve, poor fit]",
COc1ccc2cnnc(SCC(=O)Nc3ccc(C(=O)O)cc3)c2c1OC,"29.1 µM [falling, single point]",
Cc1nc(-c2ccccc2)sc1-c1ccnn1C,"0.447 µM [rising, full curve]",
CCn1c(SCC(=O)NCCc2ccc(Cl)cc2)nnc1-c1cccs1,"29.1 µM [falling, single point]",
COC(=O)[C@H](Cc1ccccc1)NC(=O)c1ccc2ccccc2n1,"5.62 µM [rising, full curve, poor fit]",

# More structures.

SMILES,AC50 [1],AC50 [2]
Cc1cccc2cc(CN(C(=O)c3cccs3)c3ccccc3)c(=O)[nH]c12,"0.13 µM [rising, full curve, poor fit]",
CC(=O)Nc1ccccc1-c1nn[nH]n1,"29.1 µM [falling, single point]",
Cc1ccc(-n2c(C)cc(/C=N/Nc3ccc([N+](=O)[O-])cn3)c2C)c(C)c1,"11.2 µM [rising, partial curve]",
CC(C)NC(=O)c1nc2ccccc2s1,"25.9 µM [falling, single point]",
Cc1cccc(NC(=O)c2nc(S(C)(=O)=O)ncc2Cl)c1,"4.47 µM [falling, full curve]","2.82 µM [rising, full curve, poor fit]"
CCOC(=O)C1(Cc2cccc(F)c2)CCN(Cc2cnc(C)s2)CC1,"11.2 µM [falling, partial curve, poor fit]",
Cc1cccc(NC(=O)CSc2nc(-c3ccco3)nc3cc(=O)[nH]n23)c1,"29.1 µM [falling, partial curve, poor fit]",
Cc1ccc2oc(-c3cccc(NC(=O)c4ccc(Br)o4)c3C)nc2c1,"5.8 µM [falling, full curve]",
O=C(Nc1ccc(F)cc1)c1c(Cl)nc2ccccn12,"3.98 µM [rising, single point]",
NS(=O)(=O)c1ccc(CCNCc2cc(Cl)ccc2OCc2ccccc2)cc1,"12.6 µM [falling, single point]",
O=C(N/C(=C\c1cn(-c2ccccc2)nc1-c1ccc(Cl)cc1)C(=O)N1CCOCC1)c1ccccc1,"29.1 µM [rising, single point]",
Cc1ccc(C)c(C2NC(=O)c3ccccc3N2)c1 (stereo unspecified),"0.316 µM [falling, full curve, poor fit]",
COc1ccc(NC(=O)CC2CCCC2)cc1S(=O)(=O)N1CCCCC1,"6.51 µM [rising, single point]",
O=C(c1ccccc1Sc1cccc2ccccc12)N1CCOCC1,"2.06 µM [rising, full curve, poor fit]",
NNC(=O)CN1C(c2ccccc2)=Nc2ccc(Br)cc2C1c1ccccc1 (stereo unspecified),"12.6 µM [falling, single point]",
Cc1c(OCc2ccc([N+](=O)[O-])cc2)ccc2c3c(c(=O)oc12)CCC3,"29.1 µM [rising, single point]",
COc1cccc(CN(C)C(=O)c2ccccc2Sc2ccccc2C#N)c1OC,"4.47 µM [falling, full curve]",
CCCOc1ccc(N/C=C/C(=O)C(C)(C)C)cc1,"12.6 µM [rising, single point]",
COc1ccc(C(=O)n2nc(-c3ccccc3)nc2N)cc1OC,"0.794 µM [falling, full curve, poor fit]",
CC(=O)N1CCC(=NNS(=O)(=O)c2cccc([N+](=O)[O-])c2)CC1,"23.1 µM [falling, single point]",
Clc1ccc(-c2n[nH]c3c2Cc2ccccc2-3)cc1Cl,"1.58 µM [rising, full curve, poor fit]",
O=C(CSCc1cccs1)N1CCCC1,"18.4 µM [rising, partial curve, poor fit]",

SMILES,AC50 [1],AC50 [2]
Cc1ccc(OS(=O)Nc2cccc3nccnc23)cc1 (stereo unspecified),"35.5 µM [rising, single point]",
N#C/C(C(=O)N1CCOCC1)=C1/SC(Cc2ccccc2)C(=O)N1c1ccccc1 (stereo unspecified),"35.5 µM [falling, single point]",
COc1ccccc1Nc1ccncc1[N+](=O)[O-],"35.5 µM [rising, single point]",
Cc1ccccc1N(CC(=O)Nc1ccccc1C(=O)NCc1ccco1)S(=O)(=O)c1ccccc1,"0.461 µM [falling, single point]",
CC(=O)Nc1sc(C)c(C)c1C(=O)OC(C)C,"20.6 µM [rising, partial curve, poor fit]",
COc1ccc2nc(NC(=O)CCNC(=O)c3ccccc3Cl)sc2c1,"12.6 µM [falling, single point]",
Cc1cc2c(cc1C)/C(=N/NC(=O)c1ccccn1)CCC2,"15.8 µM [falling, partial curve, poor fit]",
Cc1ccc(NC(=O)C2Cc3ccccc3CN2C(=O)c2ccccc2)cc1Cl (stereo unspecified),"16.4 µM [falling, partial curve]",
CSc1ccc(S(=O)(=O)Nc2c(C)cccc2C)cc1,"20.6 µM [rising, partial curve, poor fit]",
O=c1c(-c2ccc3c(c2)OCCO3)coc2cc(OC3OC(CO)C(O)C(O)C3O)ccc12 (stereo unspecified),"15.8 µM [falling, partial curve, poor fit]",
CSCCNC(=O)c1cccc(Cl)c1,"17.8 µM [rising, partial curve, poor fit]",
CC(C)Cn1cnc2c(c1=N)C(c1ccccc1)C1=C(CC(C)(C)CC1=O)O2 (stereo unspecified),"15.8 µM [falling, partial curve, poor fit]","12.6 µM [rising, single point]"
Cc1cc(NC(=O)Cn2cnc3sc(C)c(-c4ccccc4)c3c2=O)no1,"11.6 µM [falling, partial curve, poor fit]",
C=CCn1c(SCC(=O)Nc2nc(C)cs2)nnc1C(CO)NC(=O)c1ccccc1 (stereo unspecified),"1.16 µM [falling, full curve, poor fit]",
COc1ccc(C2Nc3ccccc3C(=O)N2c2ccccc2)cc1Cn1cc([N+](=O)[O-])cn1 (stereo unspecified),"25.9 µM [falling, partial curve, poor fit]",
COc1cc(OC)cc(C(=O)NC(=S)Nc2ccc(N3CCCC3)cc2)c1,"8.2 µM [falling, partial curve]",
O=C(N/N=C/c1ccc[nH]1)c1cc2ccccc2cc1O,"0.316 µM [falling, full curve, poor fit]",
CC(C)(C)c1ccc(C(CC(=O)O)NC(=O)Cc2ccccc2)cc1 (stereo unspecified),"15.8 µM [rising, single point]",
O=c1ccc2c(o1)/C(=C/C=C(Cl)Cl)CCC2,"35.5 µM [falling, single point]",
Cc1ccc(S(=O)(=O)/N=C2\C(=O)c3ccccc3C([O-])=C2n2cc[n+](CCC(C)C)c2)cc1,"14.1 µM [rising, partial curve, poor fit]",
